Results are given in words; binding and its absence hold for the method and conditions named. Some entries that bind do so weakly or less than the wild type.

The assay addresses T1, 인간 TIGIT (human TIGIT on cells) (human) (UniProt Q495A1).
T1 sequence (looked up): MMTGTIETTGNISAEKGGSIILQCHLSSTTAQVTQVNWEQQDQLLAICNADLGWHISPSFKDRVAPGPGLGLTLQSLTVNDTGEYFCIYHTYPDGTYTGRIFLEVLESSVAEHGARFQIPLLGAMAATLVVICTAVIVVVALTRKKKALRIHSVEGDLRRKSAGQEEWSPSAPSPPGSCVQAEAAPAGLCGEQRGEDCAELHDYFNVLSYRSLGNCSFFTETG
Description: flow cytometry on CD4 and CD8 T cells of anti-hCD3/28-activated human PBMC. For orientation: Flow cytometry measures light scatter and fluorescence of single cells or particles in a stream.

B1: chimeric-후보항체 clone 63F (antibody, V domains shown)
VH: EVQLEEFGGGLVQPGGSMKLSCVASGSTFSNYWMNWVRQSPEKGLEWVAEIRLKFNNYATHYVESVIGRFTISRDDSKSSVYLQMNNLRAEDTGIYYCTMVRRNWYFDVWGAGTTVTVSS
VL: QIVLTQSPAIMSAFPGEKVTLTCSASSSVSSSYLYWYQQKPRSSPKLWIYSTSNLASGVPARFSGSGSGTSYSLTISSMEAEDAASYFCHQWSSYPYTFGGGTKLEIK
With B1, the binding result was “binds”.

B2: chimeric-후보항체 clone 58C (antibody, V domains shown)
VH: EVQLQQSGPELVKPGASMKISCKASGYSFTGYIMNWVKQSHGKNLEWIGLINPYNGGSSYNQKFKGKATLTVDKSSSTAYMELLSLTSEDSAVYYCARFLRGYYAVDYWGQGTSVTVSS
VL: DVVVTQTPLSLPVSFGDQVSISCRSSQSLVNSYGHTYLSWYLHKPGQSPQLLIYGISNRFSGVPDRFSGSGSGTDFTLKISTIKPEDLGMYYCLQGTHQPWTFGGGTKLEIK
With B2, the binding result was “binds”.

These data come from KR20220082776A.
